# For at least one entry, the source does not settle the construct or the ends of the probe. For some of these results: The comparison behind a weaker result is the experiment's own reference, which may not be listed here.
# What was measured:
# [1] = biological target: T1, phospholamban (PLN, wild type) (UniProt P61014); assay: fluorescence polarization; affinity capillary electrophoresis; settings: ACE/FP: 20 mM MOPS pH 7.0, 0.1% C12E8, 0.25 mM DTT, 1 mM MgCl2, 1 mM KCl, 5 mM CaCl2, 2.5 nM FAM-ssDNA, label: 5' FAM, single-stranded DNA
# T1 sequence: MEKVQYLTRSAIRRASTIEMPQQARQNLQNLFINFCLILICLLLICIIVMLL
# [2] = biological target: T1, phospholamban (PLN, wild type); assay: solid-state NMR (RINEPT); settings: DMPC vesicles, 1:1 molar ratio; recombinant protein; single-stranded DNA
# [3] = system: PLN-AFA (pentamer-destabilizing mutant); assay: solution NMR ([1H,15N] HSQC); settings: isotropic bicelles q=0.33, legend names PLN-AFA, text says PLN; recombinant protein; single-stranded DNA
# [4] = low nM Kd, value only in figure, recombinant protein
sequence,measurement,setting,value
AGCAGCACAGAGGTCAGATG [20mer ssDNA],binding result,[1]; [4],binds
AGCAGCACAGAGGTCAGATGCAGGTAGGGTCCTATGCGTGCTACCGTGAA [50mer ssDNA],binding result,"[1]; low nM Kd, similar to the 50mer RNA, recombinant …",binds
AGCAGCACAGAGGTCAGATGCAGGTAGGGTCCTATGCGTGCTACCGTGAAAGCAGCACAGAGGTCAGATGATAGCTTGCA [80mer ssDNA used for NMR],binding result,[2],binds
AGTGATAGCTATGGT [15mer ssDNA used for solution NMR],binding result,[3],binds
AGTGATAGCTATGGT [15mer ssDNA],binding result,[1]; [4],binds
ATAGCTTGCA [10mer ssDNA],binding result,[1]; recombinant protein,binds more weakly
GCTTG [5mer ssDNA],binding result,[1]; recombinant protein,binds more weakly
